# Measurements reported in PubChem BioAssay AID1259254 (NCATS, 2017).
# Purpose: 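Gene knock-downs that lead to re-replication, shown by excess G2 DNA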 (primary screen)
# Cell system: human HCT116 colorectal cancer cells
# Reagent: single siRNA against human genes
# Timing: 3 days
# Read-out: 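Nuclei stained with Hoechst and imaged; cell-cycle phase assigned by DNA content; G2 share scaled per plate, non-targeting siRNA 0%, GMNN siRNA 100%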
# Direction: G2 robust z-score and G2 cells, % of GMNN control: higher = more G2 cells, more excess DNA replication; raw share of cells in G2: higher = larger share of cells with G2 DNA content
# Rule for the call: 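An siRNA counts as active if its G2 robust z-score lies at least 5 MADs above the screen median; here such calls match roughly 38% of GMNN control or more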
# Shown is one part, drawn at random, of about 59,000 deposited reagents. About 1,550 of them (2.6%) were called active. 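G2 share is only a proxy for re-replication; each gene was hit by three separate siRNAs, and active genes were retested.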 Raw values are not corrected between plates. A number with no mark means an inactive call. Reagents against one gene are numbered here. Reagent sequences are not shown. Not given: the amount of reagent.
The first 8 entries, to show the layout:
gene knocked down,siRNA no.,G2 robust z-score,"G2 cells, % of GMNN control",raw share of cells in G2 (%)
OSBPL8 (oxysterol binding protein like 8),1,-0.334,0.617,5.96
OSBPL8 (oxysterol binding protein like 8),2,-0.422,-0.00357,4.96
OSBPL8 (oxysterol binding protein like 8),3,-1.04,-4.37,2.83
TEX10 (testis expressed 10),1,-0.0154,2.86,4.63
TEX10 (testis expressed 10),2,0.0398,3.25,5.64
TEX10 (testis expressed 10),3,-0.68,-1.82,2.59
TMOD1 (tropomodulin 1),1,0.0899,3.6,6.73
TMOD1 (tropomodulin 1),2,0.591,7.13,6.72

The listing, repeating the preview:
gene knocked down,siRNA no.,G2 robust z-score,"G2 cells, % of GMNN control",raw share of cells in G2 (%)
OSBPL8 (oxysterol binding protein like 8),1,-0.334,0.617,5.96
OSBPL8 (oxysterol binding protein like 8),2,-0.422,-0.00357,4.96
OSBPL8 (oxysterol binding protein like 8),3,-1.04,-4.37,2.83
TEX10 (testis expressed 10),1,-0.0154,2.86,4.63
TEX10 (testis expressed 10),2,0.0398,3.25,5.64
TEX10 (testis expressed 10),3,-0.68,-1.82,2.59
TMOD1 (tropomodulin 1),1,0.0899,3.6,6.73
TMOD1 (tropomodulin 1),2,0.591,7.13,6.72
TMOD1 (tropomodulin 1),3,1.45,13.2,8
RARRES2 (retinoic acid receptor responder 2),1,-0.439,-0.123,4.94
RARRES2 (retinoic acid receptor responder 2),2,-1.49,-7.54,1.8
RARRES2 (retinoic acid receptor responder 2),3,0.983,9.88,7.43
DNM1P31 (dynamin 1 pseudogene 31),1,-0.0809,2.4,4.14
DNM1P31 (dynamin 1 pseudogene 31),2,-0.617,-1.37,2.75
DNM1P31 (dynamin 1 pseudogene 31),3,0.377,5.62,5.78
APOL3 (apolipoprotein L3),1,-0.0947,2.3,5.64
APOL3 (apolipoprotein L3),2,0.488,6.4,8.1
APOL3 (apolipoprotein L3),3,-0.946,-3.69,2.86
LTBP4 (latent transforming growth factor beta binding protein 4),1,4.22,32.7,16.4
LTBP4 (latent transforming growth factor beta binding protein 4),2,-0.505,-0.589,5.06
LTBP4 (latent transforming growth factor beta binding protein 4),3,0.283,4.96,6.79
SLC15A5,1,-0.488,-0.467,3.75
SLC15A5,2,4.52,34.8,14.5
SLC15A5,3,4.32,33.4,16.1
GFM1 (G elongation factor mitochondrial 1),1,0.187,4.28,7.66
GFM1 (G elongation factor mitochondrial 1),2,5.54 (active),41.9,23
GFM1 (G elongation factor mitochondrial 1),3,-1.32,-6.31,2.1
NIT2 (nitrilase family member 2),1,0.806,8.64,7.75
NIT2 (nitrilase family member 2),2,-0.231,1.34,5.1
NIT2 (nitrilase family member 2),3,-0.768,-2.44,2.26
PCOLCE2 (procollagen C-endopeptidase enhancer 2),1,0.454,6.16,8.96
PCOLCE2 (procollagen C-endopeptidase enhancer 2),2,0.9,9.3,7.27
PCOLCE2 (procollagen C-endopeptidase enhancer 2),3,-0.48,-0.407,3.86
DRC11 (dynein regulatory complex subunit 11),1,2.7,22,13.6
DRC11 (dynein regulatory complex subunit 11),2,-0.969,-3.85,2.62
DRC11 (dynein regulatory complex subunit 11),3,-0.221,1.41,2.76
KYAT1 (kynurenine aminotransferase 1),1,2.04,17.3,10.4
KYAT1 (kynurenine aminotransferase 1),2,-0.612,-1.34,4.6
KYAT1 (kynurenine aminotransferase 1),3,3.27,26,13.6
RSF1 (remodeling and spacing factor 1),1,0.186,4.28,7.89
RSF1 (remodeling and spacing factor 1),2,0.74,8.17,7.26
RSF1 (remodeling and spacing factor 1),3,0.162,4.1,5.37
ITGAL (integrin subunit alpha L),1,-0.999,-4.06,4.14
ITGAL (integrin subunit alpha L),2,1.07,10.5,8.86
ITGAL (integrin subunit alpha L),3,2.3,19.1,11.2
LSM4,1,0.321,5.22,8.53
LSM4,2,1.56,14,8.83
LSM4,3,-1.23,-5.66,2.14
MTHFD1LP1 (MTHFD1L pseudogene 1),1,-0.17,1.77,3.6
MTHFD1LP1 (MTHFD1L pseudogene 1),2,-0.14,1.98,4.52
MTHFD1LP1 (MTHFD1L pseudogene 1),3,0.233,4.61,4.93
ZZEF1 (zinc finger ZZ-type and EF-hand domain containing 1),1,-1.06,-4.5,2.03
ZZEF1 (zinc finger ZZ-type and EF-hand domain containing 1),2,1.21,11.5,11.1
ZZEF1 (zinc finger ZZ-type and EF-hand domain containing 1),3,-0.735,-2.21,2.42
H3C2 (H3 clustered histone 2),1,1.24,11.7,10.3
H3C2 (H3 clustered histone 2),2,0.0235,3.13,5.14
H3C2 (H3 clustered histone 2),3,0.0893,3.6,4.62
EXOC3L2 (exocyst complex component 3 like 2),1,-0.435,-0.0901,4.05
EXOC3L2 (exocyst complex component 3 like 2),2,0.959,9.71,6.05
EXOC3L2 (exocyst complex component 3 like 2),3,2.8,22.7,10.1
ARL14EPL (ARF like GTPase 14 effector protein like),1,-0.233,1.33,4.14
ARL14EPL (ARF like GTPase 14 effector protein like),2,4.66,35.8,16.1
ARL14EPL (ARF like GTPase 14 effector protein like),3,6.13 (active),46.1,16.6
GALNS (galactosamine (N-acetyl)-6-sulfatase),1,-0.605,-1.29,4.77
GALNS (galactosamine (N-acetyl)-6-sulfatase),2,-1.14,-5.09,3.33
GALNS (galactosamine (N-acetyl)-6-sulfatase),3,-0.862,-3.1,2.55
PGP (phosphoglycolate phosphatase),1,0.117,3.79,4.51
PGP (phosphoglycolate phosphatase),2,-0.847,-2.99,2.36
PGP (phosphoglycolate phosphatase),3,-0.54,-0.833,3.34
